# Experimental data from patent publication US20170002074A1.
# By UniProt entry, the sequences of proteins in these tests, tags left out. Where a name states a change or a piece, a line headed by the entry shows the natural chain unless it says otherwise.
# UniProt P20138: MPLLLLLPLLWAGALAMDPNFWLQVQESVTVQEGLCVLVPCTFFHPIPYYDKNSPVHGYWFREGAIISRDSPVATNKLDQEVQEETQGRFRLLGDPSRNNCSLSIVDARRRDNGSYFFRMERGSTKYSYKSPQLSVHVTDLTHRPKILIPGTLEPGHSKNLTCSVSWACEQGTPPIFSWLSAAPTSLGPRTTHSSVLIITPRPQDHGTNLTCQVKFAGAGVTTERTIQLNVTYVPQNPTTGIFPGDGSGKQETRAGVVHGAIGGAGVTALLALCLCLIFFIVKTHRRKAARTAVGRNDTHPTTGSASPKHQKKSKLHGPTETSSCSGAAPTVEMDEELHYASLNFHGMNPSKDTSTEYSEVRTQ
# These are yes or no findings as the source states them, for the method shown. Some entries that bind do so weakly or less than the wild type.
# B1: 33H4 (antibody, V domains shown)
# VH: EVQLQQSGAELVKPGASVKMSCKAFGYTFTTFPIEWMKQSHGKSLEWIGNFHPYNDQTKYNEEFKGRAKLTIDRSSSTVYLELGRLTSDDSAVYYCARGYYYAFDFWGQGTTLTVSS
# VL: DIQMTQSPASLTVSLGQRATISCRASESVDSYGNSYLHWYQQKPGQPPQLLIYLASNLESGVPARFSGSGSRTDFTLTIDPVEADDAATYYCQQNNEDPWTFGGGTKVEIK
# B2: 27C6 (antibody, V domains shown)
# VH: EVQLQQSGPELVKPGASVKVSCKASGYAFTSYNMYWVKQSHGKSLEWIGYIDPYNGGTRHNQKFKDKATLTVDKSSSTAYMHLNSLTSEDSAVYYCASQNYEYFDYWGQGTTLTVSS
# VL: DIVLTQSPKFMSTSVGDRVSITCKASQDVGDAVAWYQQKPGQSPKLLFYWTSTRHTGVPDRFTGSGSGTEFTLTIRNVQSEDLADYFCQQYRSTPLTFGSGTKVEIK
# B3: 23E4 (antibody, V domains shown)
# VH: EVQLQQSGAELVRPGASVKLSCKASGYTFTNYWMNWVKQRPGQGLEWIGMIDPSDNETHYSQMFKDKATLTVDKSSSTAYMQLISLTSEDSAVYYCAGYYGNFGWFVYWGQGTLVTVSA
# VL: DIFMTQTPLSLPVSLGDPASISCRSSQTIVHSNGNTYLEWYLQKPGQSPKLLIYKVSNRFSGVPDRFSGSGSGTDFTLKISRVEAEDLGVYYCFQGSHVPPTFGGGTKVEIK
# Assays:
# [1] = target: Biotinylated CD33 (human, captured on Streptavidin biosensors) (human) (UniProt P20138); assay: Octet RED384, biotinylated CD33 saturated with My9.6, then 33H4 at 5 µg/ml for 300 s
# [2] = target: Biotinylated CD33 (human, captured on Streptavidin biosensors) (human) (UniProt P20138); assay: Octet RED384, biotinylated CD33 saturated with My9.6, then 27C6 at 5 µg/ml for 300 s
# [3] = target: Biotinylated CD33 (human, captured on Streptavidin biosensors) (human) (UniProt P20138); assay: Octet RED384, biotinylated CD33 saturated with My9.6, then 23E4 at 5 µg/ml for 300 s
binder,measurement,setting,value
B1,binding,[1],binds
B2,binding,[2],binds
B3,binding,[3],binds
